According to patent US20140322216A1:
No constants are given. Whether binding was seen depends on the method and setting. Some binding calls cover weakened binding; strength is not graded here.

The chains behind the UniProt entries cited, without tags or fusion partners. Residues count along the entry.
UniProt P51654, residues 25-559: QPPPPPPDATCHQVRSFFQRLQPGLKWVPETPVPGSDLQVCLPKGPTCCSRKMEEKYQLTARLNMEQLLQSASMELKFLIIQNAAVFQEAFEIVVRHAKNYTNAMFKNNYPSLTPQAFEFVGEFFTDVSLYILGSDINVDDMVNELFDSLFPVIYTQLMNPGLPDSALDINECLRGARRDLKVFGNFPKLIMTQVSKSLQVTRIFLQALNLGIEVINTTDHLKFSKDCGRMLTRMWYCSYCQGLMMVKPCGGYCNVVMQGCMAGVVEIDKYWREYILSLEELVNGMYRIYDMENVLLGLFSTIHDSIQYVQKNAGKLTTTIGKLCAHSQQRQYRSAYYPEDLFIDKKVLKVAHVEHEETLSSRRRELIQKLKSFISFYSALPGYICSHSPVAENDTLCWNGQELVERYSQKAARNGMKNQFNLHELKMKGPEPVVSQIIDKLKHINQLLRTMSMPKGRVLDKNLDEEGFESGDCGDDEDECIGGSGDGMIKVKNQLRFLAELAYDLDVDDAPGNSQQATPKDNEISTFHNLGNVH

Tests used:
[1] = target: GST protein [GST: P08515]; assay: dot blot, 10 ng GST per spot, scFv detected with anti-V5 mAb and IR680 anti-mouse
[2] = target: full-length glycosylated recombinant hGPC3 protein expressed in a murine myeloma cell line (human) (UniProt P51654); assay: ELISA on rhGPC3 precoated at 1 ug/ml, scFv titrated
[3] = target: full-length glycosylated recombinant hGPC3 protein expressed in a murine myeloma cell line (human) (UniProt P51654); assay: dot blot, 10 ng antigen per spot, scFv detected with anti-V5 mAb and IR680 anti-mouse
[4] = target: full-length glycosylated recombinant hGPC3 protein expressed in a murine myeloma cell line (human) (UniProt P51654); assay: single-point ELISA of scFv on full length hGPC3 protein expressed by mammalian cells

B1: scFv 3D8 (scFv, V domains shown)
VH: QVQLVQSGGGLAQPGGSLRLSCAASGSSFSTFVLSWVRQTPGKGLQWVSTISGSGTSTYYADSVKGRFTVSRDNAKNTQYLQMNSLRAEDTAIYYCARHKSFGVQWLWGQGALVVRLL
VL: VHIVMTQSPLSLPVTLGQPASISCWSSQSLVYGDGNTYLNWFQQRPGQSPRRLIYKVSNRDSGVPDRFSGSGSGTDFTLKISRVEAEDVGVYYCMQGTHWPPGTFGGGTKLEIK
For B1, which binding [1] is on record?
Its binding is “no binding”.

And the binding [2]?
Its binding is “binds”.

And the binding [3]?
Its binding is “binds”.

And the binding [4]?
Its binding is “binds”.
